Measurements as given in paper PMC9002611.
These are yes or no findings as the source states them, for the method shown. In cells and extracts the contact can be indirect. Some entries that bind do so weakly or less than the wild type. Sequences can lack the tags named with a protein.

Target: T1, Strep-tagged HybG (native, HybGWT) (E. coli) (UniProt P0AAM7)
T1 sequence: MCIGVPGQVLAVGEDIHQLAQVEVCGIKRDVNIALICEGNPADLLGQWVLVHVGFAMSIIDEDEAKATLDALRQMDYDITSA
Assay: pull-down; single-step Strep-tactin affinity enrichment of the Strep-tagged chaperone from extracts of anaerobically grown SHH228 cells co-producing HypD; elution fractions (10 ug protein) on SDS-PAGE, Coomassie stain, densitometry (ImageQuant TL); apparent stoichiometries

B1: HypD (untagged) (protein, UniProt P24192 1-373)
chain: MRFVDEYRAPEQVMQLIEHLRERASHLSYTAERPLRIMEVCGGHTHAIFKFGLDQLLPENVEFIHGPGCPVCVLPMGRIDTCVEIASHPEVIFCTFGDAMRVPGKQGSLLQAKARGADVRIVYSPMDALKLAQENPTRKVVFFGLGFETTMPTTAITLQQAKARDVQNFYFFCQHITLIPTLRSLLEQPDNGIDAFLAPGHVSMVIGTDAYNFIASDFHRPLVVAGFEPLDLLQGVVMLVQQKIAAHSKVENQYRRVVPDAGNLLAQQAIADVFCVNGDSEWRGLGVIESSGVHLTPDYQRFDAEAHFRPAPQQVCDDPRARCGEVLTGKCKPHQCPLFGNTCNPQTAFGALMVSSEGACAAWYQYRQQESEA
binding: binds
